The series in a line: Boc solid-phase peptide synthesis; 4-methylbenzhydrylamine resin; NMP/HOBt (Option 1) system; dicyclohexylcarbodiimide and 1-hydroxybenzotriazole. To be noted: whole synthesis, scale 0.5 mmol.

Strings that start with PEPTIDE1 are HELM notation: dots part the residues, brackets hold end groups and non-standard residues.

Consider “PEPTIDE1{V.L.G.K.L.S.Q.E.L.H.K.L.Q.T.Y.P.R.T.N.T.G.S.G.T.P.[am]}$$$$V2.0”, for which the isolated mass amounted to 98 mg. Also, the “final HPLC purity” value (analytical RP-HPLC on C4, C8 or C18 column (Vydac)) was found to be 99%.

(Values after US5580953A (Amylin Pharmaceuticals, Inc., priority 1991, dated 1996).)
